In patent publication US20200157217A1 (SYSTIMMUNE, published 2020) one finds binding data, which are given here for 1 molecule.

By UniProt entry, the sequences of proteins in these tests, tags left out. Where a name states a change or a piece, a line headed by the entry shows the natural chain unless it says otherwise.
UniProt P07766: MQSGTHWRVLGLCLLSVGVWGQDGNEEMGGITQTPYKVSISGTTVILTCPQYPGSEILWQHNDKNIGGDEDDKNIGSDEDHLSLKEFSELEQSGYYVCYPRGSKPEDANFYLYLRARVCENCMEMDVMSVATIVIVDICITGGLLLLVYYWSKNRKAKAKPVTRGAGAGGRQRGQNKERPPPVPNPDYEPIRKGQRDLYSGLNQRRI
UniProt P09693: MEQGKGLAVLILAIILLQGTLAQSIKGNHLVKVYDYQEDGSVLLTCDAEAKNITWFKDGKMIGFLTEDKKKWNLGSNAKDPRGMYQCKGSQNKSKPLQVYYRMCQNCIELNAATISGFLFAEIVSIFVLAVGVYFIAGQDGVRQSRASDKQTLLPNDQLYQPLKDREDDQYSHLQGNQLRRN
UniProt P04234: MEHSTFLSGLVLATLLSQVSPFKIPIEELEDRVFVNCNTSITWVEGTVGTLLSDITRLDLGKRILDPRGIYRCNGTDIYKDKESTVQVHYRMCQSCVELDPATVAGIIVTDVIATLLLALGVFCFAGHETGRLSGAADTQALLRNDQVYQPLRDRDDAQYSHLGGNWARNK

Results are given in words; binding and its absence hold for the method and conditions named. Some entries that bind do so weakly or less than the wild type.

Assay [1] concerns the target T1, human CD3 (Delta, Gamma, Epsilon) on the human T cell line Jurkat or on purified human CD3+ T cells (human) (UniProt P07766+P09693+P04234). Nature of the assay: FACS, antibody titration on Jurkat cells.
Assay [2] deals with T1, human CD3 (Delta, Gamma, Epsilon) on the human T cell line Jurkat or on purified human CD3+ T cells (human). The experiment in a line: FACS on the human CD3+ T cell line Jurkat.

B1: 299F6 chimeric rabbit/human IgG antibody (antibody, V domains shown)
VH: QSLEESGGRLVTPGTPLTLTCTVSGFTISSNAMSWVRQAPGKGLEWIGVITGRDITYYANWAKGRFTISKTSSTTVDLKMTSLTAEDSATYFCARDGGSSAITSNNIWGPGTLVTVSS
VL: DVVMTQTPSSVSAAVGGTVTINCQASESISSWLAWYQQKPGQPPKLLIYEASKLASGVPSRFSGSGSGTEFTLTISDLECADAATYYCQGYFYFISRSYVNAFGGGTEVVFKR
Consider B1, for which the binding entry in assay [1] and in assay [2] was “binds” each time.
